The other results are listed elsewhere or left out.
Target: OsWRKY34 (Oryza sativa, UniProt Q0JBA9 1-250)
Test: protein-binding microarray (RPBM); PBS, 2% BSA, 51.3 ng/ul salmon testes DNA, 50 uM zinc acetate, 200 nM TF, 25 C, 1 h; high values mean tight binding
Settings: protein: recombinant; tags: N-terminal polyhistidine and DsRed monomer fusion (pET32a); label: CyDye5-dUTP incorporated in the synthesized complementary strand; 3' TTTTT single-stranded linker to array surface; dsDNA, one strand shown
Outline: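 Per-feature fluorescence intensity (arbitrary units), read on an Axon 4000B scanner, is the binding signal. Transcription factors carrying an N-terminal polyhistidine tag and DsRed fusion were expressed in E. coli BL21-CodonPlus and purified on Ni–NTA. A custom Agilent array, made double-stranded by primer extension with Cy5-dUTP and blocked with 2% BSA, was incubated with 200 nM protein in PBS, 2% BSA, salmon testes DNA and 50 µM zinc acetate at 25 °C for 1 h and then washed.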

The chains behind the UniProt entries cited, without tags or fusion partners.
UniProt Q0JBA9, entry or part of it: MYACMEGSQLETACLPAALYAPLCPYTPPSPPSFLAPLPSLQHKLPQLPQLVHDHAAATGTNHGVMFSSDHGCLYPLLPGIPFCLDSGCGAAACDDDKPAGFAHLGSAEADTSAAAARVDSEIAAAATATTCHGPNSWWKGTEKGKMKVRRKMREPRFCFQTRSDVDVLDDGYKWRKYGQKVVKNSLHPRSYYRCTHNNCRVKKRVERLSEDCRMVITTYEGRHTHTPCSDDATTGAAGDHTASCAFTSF

Sequence	binding signal
TATTGTACATGCTCTATCGTCAACCACTGAGCTACTAGTACGGAGTCACCTAGTGCAG	8480 fluorescence intensity (a.u.)
TTGTTGGGCTGGGCTGGGATTCCCAAGAAGGTCTAGACTTCGGAGTCACCTAGTGCAG	11400 fluorescence intensity (a.u.)
CGCTGCCTGTGTTTTTCCGCGTGACGACGGCGCGGAGATCCGGAGTCACCTAGTGCAG	8120 fluorescence intensity (a.u.)
AATTGTGTGCTTGTCAATTATATTTATTTGGATTTTCTCTCGGAGTCACCTAGTGCAG	8960 fluorescence intensity (a.u.)
CATTACGTGAAGGACGCCTATGTACCATGACACGCTCCAACGGAGTCACCTAGTGCAG	8370 fluorescence intensity (a.u.)
CACATATGGCATCTACATCTCCCAACCTTGCACACATCGACGGAGTCACCTAGTGCAG	8350 fluorescence intensity (a.u.)
GACTTGCTTAGCAGTGCCACAATTCCTTTCCACTCTCTCTCGGAGTCACCTAGTGCAG	9340 fluorescence intensity (a.u.)
GTCGCATCAGTCGAGCTCGGCCGGAGGAGGAGGGGAGGGTCGGAGTCACCTAGTGCAG	10800 fluorescence intensity (a.u.)
AGATGGCTTGTCGTGGCTGCTGTGGCGCATGTACCCGGATCGGAGTCACCTAGTGCAG	8640 fluorescence intensity (a.u.)
GCCCCGTCATGGGAGAAGCCGCTTTTTTTTTTTTTTTTTGCGGAGTCACCTAGTGCAG	8760 fluorescence intensity (a.u.)
GTCAGTCCTTGTCACGTTTGCTACGGCCATCCCGTCCAATCGGAGTCACCTAGTGCAG	12400 fluorescence intensity (a.u.)
TTACTCCCTTGCCTTTTAAGCACTCTTTCCTTCCTTACAACGGAGTCACCTAGTGCAG	8410 fluorescence intensity (a.u.)
GGGTTTCCAAAATATGTGGGTTTTTTTTGTTGCAATGAAACGGAGTCACCTAGTGCAG	12200 fluorescence intensity (a.u.)
AATTCGATCTCTTCTTTCTCCCTTTTTTTCTGTTCGGTTTCGGAGTCACCTAGTGCAG	8730 fluorescence intensity (a.u.)
CTACTAGCTAGTGCTCTCACTCTCACTCACTCACACTGTCCGGAGTCACCTAGTGCAG	12700 fluorescence intensity (a.u.)
TATTTTCTTTCTGCAGAACTGCTATCACTGTCTGTAACATCGGAGTCACCTAGTGCAG	9660 fluorescence intensity (a.u.)
CCCATCACCGCCCTTGGCCGAGCCGCATCTACCCGCATCGCGGAGTCACCTAGTGCAG	8770 fluorescence intensity (a.u.)
ATTGATCTCCTTTGACTTTTGCCAGTATCTCCTCTTCCTTCGGAGTCACCTAGTGCAG	12700 fluorescence intensity (a.u.)
AGCCGATTTTCTTTCTTGCTTAATTATTATCCGGCGTCTTCGGAGTCACCTAGTGCAG	11400 fluorescence intensity (a.u.)
TGCTAAAAAGTCAACGGTGTCAAACATTTCGAAACGGAGGCGGAGTCACCTAGTGCAG	10900 fluorescence intensity (a.u.)
ATGTCTCTGTTTTCATAGTTCTATTTATGATATTATAACACGGAGTCACCTAGTGCAG	8760 fluorescence intensity (a.u.)

Sequence	binding signal
TCGTTTTTTTTTTCTTTTCTTGATCTCTTCTCCTCCTTCCCGGAGTCACCTAGTGCAG	8680 fluorescence intensity (a.u.)
GAGGAGGAATTTCTGGTTGGATTTAGTGGATCGTTTTAAACGGAGTCACCTAGTGCAG	8520 fluorescence intensity (a.u.)
TTCTCTCTCCAGTCCAATCTCACCCATCGCCGACGACCCACGGAGTCACCTAGTGCAG	9150 fluorescence intensity (a.u.)
TTTATTTCGAGCTACTTTTGACTTTCCATCTGATTTGCCGCGGAGTCACCTAGTGCAG	8210 fluorescence intensity (a.u.)
TCTGTGCGAGGAGTGGTTCTGTGGTTTTCTGCATGTTCAACGGAGTCACCTAGTGCAG	12000 fluorescence intensity (a.u.)
CTGGTTTTTGAGCCTCTCGTGCCTGATCCTGCTTTCTTGTCGGAGTCACCTAGTGCAG	8192 fluorescence intensity (a.u.)
TAGTTTATTAGTTTGGCTTATGTCTCACCGTGATCATCTCCGGAGTCACCTAGTGCAG	8700 fluorescence intensity (a.u.)
TGAATCGGGTCATGTCTTTCTGACCATGTTTGGTGGATTTCGGAGTCACCTAGTGCAG	8440 fluorescence intensity (a.u.)
CTCTTTTTACCGTACCTGTTCCTATTTGAAATATTTAGATCGGAGTCACCTAGTGCAG	9350 fluorescence intensity (a.u.)
AATACGTACGCTTGCTTCATCTTCTTCTTCACCATCCATGCGGAGTCACCTAGTGCAG	9030 fluorescence intensity (a.u.)
CAACCTCTCCGGGGCGGGGCTGGCCGGCGAGCTGGCGGCGCGGAGTCACCTAGTGCAG	9150 fluorescence intensity (a.u.)
CGCCGCACTCCTGTCTGTCTCTGCACTCTCGGACTCGTCTCGGAGTCACCTAGTGCAG	8200 fluorescence intensity (a.u.)
ACAGCTGCAAACTCCTCCTTCCTTGATTTCTTCACCCTGTCGGAGTCACCTAGTGCAG	8160 fluorescence intensity (a.u.)
TAAAGCATCCGACACTGCCACGTGGGCCCACCGACCCGACCGGAGTCACCTAGTGCAG	8040 fluorescence intensity (a.u.)
ACTTCTATAATATATGTAAATTACCTTTTGGCTTTGCTGACGGAGTCACCTAGTGCAG	8060 fluorescence intensity (a.u.)
TTGATGTTTTTCTTAATTGTACCTTGATTTTGTTGACATACGGAGTCACCTAGTGCAG	9100 fluorescence intensity (a.u.)
GAATTTTGCTTTGGTTCAACCTTTTTTCTCTTCTTTCTCTCGGAGTCACCTAGTGCAG	9740 fluorescence intensity (a.u.)
CAATCTCTTGACTATTTCTGCTGTCCAAGTCCAACAACGCCGGAGTCACCTAGTGCAG	9240 fluorescence intensity (a.u.)
AGTTTTTACTAAATTTTAGTCACTGTTTTCCACAGAGGAACGGAGTCACCTAGTGCAG	9150 fluorescence intensity (a.u.)
GGGAAACCTCGTAGGATAAGTGTCCTTAATAGTCATTTCACGGAGTCACCTAGTGCAG	8230 fluorescence intensity (a.u.)
TCGCTTCTCCTCCACACCCACGAATCCCCGCCGTCTCCTCCGGAGTCACCTAGTGCAG	9430 fluorescence intensity (a.u.)

Two consecutive entries already listed, quoted:
Sequence	binding signal
AATTCGATCTCTTCTTTCTCCCTTTTTTTCTGTTCGGTTTCGGAGTCACCTAGTGCAG	8730 fluorescence intensity (a.u.)
CTACTAGCTAGTGCTCTCACTCTCACTCACTCACACTGTCCGGAGTCACCTAGTGCAG	12700 fluorescence intensity (a.u.)

Source: paper PMC7819943, “Rice protein-binding microarrays: a tool to detect cis-acting elements near promoter regions in rice”
